According to paper PMC5363644:
No constants are given. Whether binding was seen depends on the method and setting. Binding seen in cells or lysates may run through a third protein. Some binding calls cover weakened binding; strength is not graded here.

By UniProt entry, the sequences of proteins in these tests, tags left out.
UniProt Q00987: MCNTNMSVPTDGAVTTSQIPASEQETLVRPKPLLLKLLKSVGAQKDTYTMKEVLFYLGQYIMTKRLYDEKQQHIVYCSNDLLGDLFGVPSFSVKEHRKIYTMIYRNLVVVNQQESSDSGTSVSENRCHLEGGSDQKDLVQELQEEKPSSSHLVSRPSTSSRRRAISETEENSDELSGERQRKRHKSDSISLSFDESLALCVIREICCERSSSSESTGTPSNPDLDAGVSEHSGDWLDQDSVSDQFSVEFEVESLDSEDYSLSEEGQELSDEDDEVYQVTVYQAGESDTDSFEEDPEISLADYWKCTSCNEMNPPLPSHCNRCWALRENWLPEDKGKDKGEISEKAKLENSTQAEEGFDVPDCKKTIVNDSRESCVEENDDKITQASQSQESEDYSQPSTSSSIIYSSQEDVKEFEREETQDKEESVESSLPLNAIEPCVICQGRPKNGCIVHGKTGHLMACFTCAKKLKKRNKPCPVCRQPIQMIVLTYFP

Columns and labels:
[1] = target: p53, endogenous (human (endogenous in HeLa and HCT-116)) (UniProt P04637); experiment: co-IP; endogenous proteins; HeLa or HCT-116 lysates in NP-40 lysis buffer (50 mM Tris-HCl pH 7.4, 0.5% NP-40, 150 mM NaCl); 2 ug antibody overnight at 4 C, protein A/G-agarose; immunoblotting
[2] = target: M2-type pyruvate kinase (PKM2), endogenous (human (endogenous in HeLa and HCT-116)) (UniProt P14618); experiment: as above
[3] = target: GST-PKM2 fusion protein (UniProt P14618); experiment: pull-down; purified GST-PKM2 coupled to GSH-Sepharose incubated with HeLa or HCT-116 cell lysates; three washes; retained proteins blotted; only the target purified

| binding [1] | binding [2] | binding [3] | Substance |
| --- | --- | --- | --- |
| binds | – | – | M2-type pyruvate kinase (PKM2), endogenous (from UniProt P14618 1-531) (enzyme) |
| – | binds | binds | MDM2 (mouse double minute-2), endogenous (from UniProt Q00987 1-491) (enzyme) |
| – | binds | binds | p53, endogenous (from UniProt P04637 1-393) |
